Data as given in paper PMC10564737, “Structure-based design of a phosphotyrosine-masked covalent ligand targeting the E3 ligase SOCS2” (Nature Communications, 2023).
“And” between values parts separate entries of the source, which are not always exact repeats. Equal values may be shown once. Further values from the same series stand in other lists.

The chains behind the UniProt entries cited, without tags or fusion partners. Residues count along the entry.
UniProt O14508, 32-198: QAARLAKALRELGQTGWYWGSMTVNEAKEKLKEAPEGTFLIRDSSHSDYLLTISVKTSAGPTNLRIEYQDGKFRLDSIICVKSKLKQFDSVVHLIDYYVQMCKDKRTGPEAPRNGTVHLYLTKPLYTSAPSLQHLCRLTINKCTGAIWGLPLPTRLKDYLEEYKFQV

Biological target: T1, SBC2 (Homo sapiens, UniProt O14508)
T1 construct: SOCS2 (amino acids 32–198); His6 (N, cleaved yes); made in house; host or cells: E. coli BL21(DE3)
Assay: Covalent fluorescence polarization (FP) probe displacement assay
Type: binding
Description: With the specific covalent modification of Cys111 established, we decided to fully characterize MN551 as a covalent SOCS2 inhibitor. […] (Fig. 2g, h, Supplementary Fig. 9). Due to the covalent nature of the competing inhibitor, a time-dependent reduction in the fraction of protein-bound probe is observed. […] This value illustrates reasonable specificity for a covalent inhibitor, with nonetheless scope for future optimization. In addition to characterizing the kinetic covalency parameters, we have also assessed the stability of the MN551 by monitoring its reactivity (half-life >70 min) with reduced glutathione (GSH) (Supplementary Fig. 10)[35].
To monitor the SBC2-ligand binding kinetics we designed a fluorescein-labeled small-molecule probe - compound 26. The fluorescence polarization (anisotropy) of a threefold serial dilution of 50 µM SBC2 in 10 nM of the probe in 100 mM HEPES pH 7.5, 50 mM NaCl, 0.5 mM TCEP, 2% DMSO was measured to determine the KL (Supplementary Fig. 9A) (BMG Labtech PHERAstar – firmware v1.33). Protein titration and the curves were fitted using GraphPad Prism 9, using one-site fitting models to determine the probe binding constant, KL. Samples were run in triplicate in 384 well plates, using a total volume per well of 16 μL. The bound fraction of the probe is measure using the equation:1 Fb=Af−A/Af−Ab Where,
A time-dependent reduction in probe anisotropy were measured for a 2-fold serial dilution of […] compound MN551 in 10 nM probe +300 μM SBC2. To determine the initial reversible binding affinity, the initial bound fraction of the probe at time = 0, Fbo (the y-intercept in Fb v/s Time plot, Supplementary Fig. 9B) was plotted against MN551 concentration, and the obtained IC50 is then converted to Ki (Supplementary Fig. 9C)[17]. The slope from Fb versus time graph when divided by Fbo gives rate of covalency, kobs. A plot of kobs v/s MN551 concentration using Michaelis–Menten model of GraphPad Prism 9, provides the parameters kinact (maximum potential rate of inactivation) and KI (concentration of MN551 at which kobs = kinact/2) (Supplementary Fig. 9D, E).
The observed first-order rate constant, kobs is related to KI and kinact by the equation:2 kobs=kinactI/KI+I
At [I]«[KI] the above equation is converted to3 […]
The slope from the plot of kobs against concentration of MN551 gives us the covalent efficiency parameter kinact/KI (Supp Fig. 9F)[30],[33].

[1] = MN551 390.625 nM; Cycle 10 (45 min)
[2] = MN551 390.625 nM; Cycle 11 (50 min)
[3] = MN551 390.625 nM; Cycle 12 (55 min); n=1
[4] = MN551 390.625 nM; Cycle 13 (60 min); n=1
[5] = MN551 390.625 nM; Cycle 14 (65 min); n=1
[6] = MN551 390.625 nM; Cycle 15 (70 min); n=1
[7] = MN551 390.625 nM; Cycle 16 (75 min); n=1
[8] = MN551 510.204 nM, Cycle 9 (40 min)
[9] = MN551 510.204 nM, Cycle 10 (45 min)
[10] = MN551 510.204 nM, Cycle 11 (50 min)
[11] = MN551 510.204 nM, Cycle 12 (55 min)
[12] = MN551 510.204 nM, Cycle 16 (75 min), n=1
[13] = MN551 510.204 nM, Cycle 17 (80 min), n=1
[14] = MN551 510.204 nM, Cycle 18 (85 min), n=1
[15] = MN551 510.204 nM; Cycle 7 (30 min)
[16] = MN551 510.204 nM; Cycle 8 (35 min)
[17] = MN551 510.204 nM; Cycle 9 (40 min)
[18] = MN551 510.204 nM; Cycle 10 (45 min)
[19] = MN551 510.204 nM; Cycle 11 (50 min)
[20] = MN551 510.204 nM; Cycle 13 (60 min); n=1
[21] = MN551 510.204 nM; Cycle 14 (65 min); n=1
[22] = MN551 510.204 nM; Cycle 15 (70 min); n=1
[23] = MN551 510.204 nM; Cycle 16 (75 min); n=1
[24] = MN551 714.286 nM, Cycle 9 (40 min)
[25] = MN551 714.286 nM, Cycle 10 (45 min)
[26] = MN551 714.286 nM, Cycle 11 (50 min)
[27] = MN551 714.286 nM, Cycle 12 (55 min)
[28] = MN551 714.286 nM, Cycle 16 (75 min), n=1

In the case of `O=C(CCl)Nc1cccc(CNC(=O)[C@H](Cc2ccc(OP(=O)(O)O)cc2)NC(=O)Cc2ccc(F)cc2)c1` [MN551], the “Anisotropy data 485,520,520” value [1] is reported as 263.5 and 265.1 and 266.6, the Fb [1] is reported as 0.905 and 0.879 and 0.9076 and 0.9319 and 0.9386 and 0.9079 and the Anisotropy [2] is reported as 269.9 and 268.6 and 268.1. For the same compound, the “Anisotropy based on Raw Data (485)” value [2] was 265.4 and 265.8 and 263, the Anisotropy (MN551 390.625 nM; Cycle 11 (50 min); n=1) was 262.1 and 264.5 and 265.6 and the Anisotropy [3] was 260.1 and 263.6 and 262.7. For the same compound, the “Anisotropy based on Raw Data (485)” value [3] was 263.7 and 265.1 and 261, the Anisotropy [4] was 258 and 259.6 and 261 and the “Anisotropy based on Raw Data (485)” value [4] was 264.5 and 264.8 and 259.7. For the same compound, the Anisotropy [5] was 258.3 and 259.8 and 260.3, the “Anisotropy based on Raw Data (485)” value [5] was 262.2 and 262.6 and 258.4 and the Anisotropy [6] was 255.8 and 259.1 and 259. For the same compound, the “Anisotropy based on Raw Data (485)” value [6] was 262.5 and 263.5 and 259.2, the Anisotropy [7] was 253.8 and 257.7 and 259.4 and the “Anisotropy based on Raw Data (485)” value [7] was 257.7 and 260.6 and 257.1. The “Anisotropy data 485,520,520” value (MN551 390.625 nM; Cycle 19 (90 min); n=1) was 261.1 and 258.8 and 256.5, the “Anisotropy data 485,520,520” value (MN551 390.625 nM; Cycle 20 (95 min); n=1) was 261.4 and 255.6 and 254.3 and the Fb (MN551 510.204 nM, Cycle 7 (30 min)) was 0.7463 and 0.6925 and 0.7158. The Fb (MN551 510.204 nM, Cycle 8 (35 min)) was 0.7249 and 0.6952 and 0.6739, the “Anisotropy based on Raw Data (485)” value [8] was 256.8 and 258 and 257.8 and the Fb [8] was 0.7241 and 0.6954 and 0.7141. For the same compound, the “Anisotropy based on Raw Data (485)” value [9] was 254.9 and 257.7 and 252.7, the Fb [9] was 0.716 and 0.6966 and 0.6867 and the “Anisotropy based on Raw Data (485)” value [10] was 254.8 and 254 and 255.7. For the same compound, the Fb [10] was 0.7278 and 0.6612 and 0.6951, the “Anisotropy based on Raw Data (485)” value [11] was 255.9 and 253.8 and 252.4 and the Fb [11] was 0.7081 and 0.6991 and 0.6807. For the same compound, the Anisotropy (MN551 510.204 nM, Cycle 13 (60 min), n=1) was 251.3 and 248.3 and 246.9, the Anisotropy (MN551 510.204 nM, Cycle 14 (65 min), n=1) was 250.8 and 244.9 and 242.7 and the Anisotropy (MN551 510.204 nM, Cycle 15 (70 min), n=1) was 246.8 and 244.6 and 243.1. The Anisotropy [12] was 246.5 and 244.2 and 242.3, the “Normalised anisotropy (0 nM MN551 = 1, free probe = 0)” value [12] was 0.7262 and 0.7224 and 0.7017 and the Anisotropy [13] was 246.9 and 242.9 and 241. The “Anisotropy based on Raw Data (485)” value [13] was 246.6 and 246.2 and 247.2, the “Normalised anisotropy (0 nM MN551 = 1, free probe = 0)” value [13] was 0.751 and 0.7024 and 0.7119 and the Anisotropy [14] was 247.1 and 243.6 and 237.9. The “Normalised anisotropy (0 nM MN551 = 1, free probe = 0)” value [14] was 0.7619 and 0.7261 and 0.7035, the “Fb, fraction bound” value (MN551 510.204 nM; Cycle 4 (15 min)) was 0.8736 and 0.82 and 0.8311 and the “Fb, fraction bound” value (MN551 510.204 nM; Cycle 5 (20 min)) was 0.8341 and 0.8069 and 0.8095. For the same compound, the “Fb, fraction bound” value (MN551 510.204 nM; Cycle 6 (25 min)) was 0.8367 and 0.8061 and 0.8027, the “Anisotropy data 485,520,520” value [15] was 255.4 and 245.7 and 247.4 and the Fb [15] was 0.838 and 0.8444 and 0.9203. The “Fb, fraction bound” value [15] was 0.7996 and 0.8155 and 0.7886, the Anisotropy [16] was 256.6 and 255.7 and 255.9 and the “Anisotropy data 485,520,520” value [16] was 253.6 and 245.4 and 243.7. For the same compound, the Fb [16] was 0.8335 and 0.8468 and 0.9136 and 0.8068 and 0.7778 and 0.8082, the Anisotropy [17] was 258.4 and 254 and 252.7 and the “Anisotropy data 485,520,520” value [17] was 253.4 and 244.2 and 247.6. For the same compound, the Fb [17] was 0.7979 and 0.8532 and 0.8993 and 0.8314 and 0.7564 and 0.7735, the Anisotropy [18] was 256.9 and 253.8 and 250 and the “Anisotropy data 485,520,520” value [18] was 249.6 and 242.3 and 242.1. The Fb [18] was 0.8044 and 0.8467 and 0.8698 and 0.8151 and 0.7692 and 0.7545, the Anisotropy [19] was 255.5 and 253.1 and 250.3 and the “Anisotropy data 485,520,520” value [19] was 250.5 and 240.1 and 242.6. For the same compound, the Fb [19] was 0.8082 and 0.775 and 0.7752, the Fb (MN551 510.204 nM; Cycle 11 (50 min); column head blank in this cycle) was 0.7968 and 0.8263 and 0.8866 and the Anisotropy (MN551 510.204 nM; Cycle 12 (55 min); n=1) was 249.1 and 240.9 and 240.8. For the same compound, the Anisotropy [20] was 246.3 and 236.8 and 237.8, the “Anisotropy based on Raw Data (485)” value [20] was 254.5 and 252.9 and 250.3 and the Anisotropy [21] was 246.5 and 235.8 and 237.4. The “Anisotropy based on Raw Data (485)” value [21] was 251.6 and 252.6 and 251.7, the Anisotropy [22] was 243.9 and 236.5 and the “Anisotropy based on Raw Data (485)” value [22] was 250.1 and 250.2 and 248. For the same compound, the Anisotropy [23] was 241.7 and 234 and 234.3, the “Anisotropy based on Raw Data (485)” value [23] was 248.2 and 249.2 and 247.7 and the “Anisotropy data 485,520,520” value (MN551 510.204 nM; Cycle 20 (95 min); n=1) was 240.4 and 239.6 and 236.2. For the same compound, the Fb (MN551 714.286 nM, Cycle 7 (30 min)) was 0.6941 and 0.6597 and 0.6875, the Fb (MN551 714.286 nM, Cycle 8 (35 min)) was 0.6778 and 0.6721 and 0.6457 and the “Anisotropy based on Raw Data (485)” value [24] was 253.4 and 252.2. The Fb [24] was 0.667 and 0.6654 and 0.6493, the “Anisotropy based on Raw Data (485)” value [25] was 253.2 and 249.3 and 253.1 and the Fb [25] was 0.671 and 0.6826 and 0.6416. The “Anisotropy based on Raw Data (485)” value [26] was 250.4 and 249.7 and 250.7, the Fb [26] was 0.6343 and 0.6359 and 0.6515 and the “Anisotropy based on Raw Data (485)” value [27] was 249.3 and 247.1 and 246.3. For the same compound, the Fb [27] was 0.6301 and 0.6279 and 0.6205, the Anisotropy (MN551 714.286 nM, Cycle 14 (65 min), n=1) was 244.8 and 239 and 238.9 and the Anisotropy (MN551 714.286 nM, Cycle 15 (70 min), n=1) was 240.2 and 239.9 and 237.6. The Anisotropy [28] was 240.2 and 237.5 and 235.3 and the “Normalised anisotropy (0 nM MN551 = 1, free probe = 0)” value [28] was 0.6667 and 0.6576 and 0.6348.
